Assay results from article PMC11335225.
Results are given in words; binding and its absence hold for the method and conditions named. Binding seen in cells or lysates may run through a third protein. Some entries that bind do so weakly or less than the wild type. Where a sequence is shown, tags or fusion partners need not be part of it.

By UniProt entry, the sequences of proteins in these tests, tags left out.
UniProt O43526: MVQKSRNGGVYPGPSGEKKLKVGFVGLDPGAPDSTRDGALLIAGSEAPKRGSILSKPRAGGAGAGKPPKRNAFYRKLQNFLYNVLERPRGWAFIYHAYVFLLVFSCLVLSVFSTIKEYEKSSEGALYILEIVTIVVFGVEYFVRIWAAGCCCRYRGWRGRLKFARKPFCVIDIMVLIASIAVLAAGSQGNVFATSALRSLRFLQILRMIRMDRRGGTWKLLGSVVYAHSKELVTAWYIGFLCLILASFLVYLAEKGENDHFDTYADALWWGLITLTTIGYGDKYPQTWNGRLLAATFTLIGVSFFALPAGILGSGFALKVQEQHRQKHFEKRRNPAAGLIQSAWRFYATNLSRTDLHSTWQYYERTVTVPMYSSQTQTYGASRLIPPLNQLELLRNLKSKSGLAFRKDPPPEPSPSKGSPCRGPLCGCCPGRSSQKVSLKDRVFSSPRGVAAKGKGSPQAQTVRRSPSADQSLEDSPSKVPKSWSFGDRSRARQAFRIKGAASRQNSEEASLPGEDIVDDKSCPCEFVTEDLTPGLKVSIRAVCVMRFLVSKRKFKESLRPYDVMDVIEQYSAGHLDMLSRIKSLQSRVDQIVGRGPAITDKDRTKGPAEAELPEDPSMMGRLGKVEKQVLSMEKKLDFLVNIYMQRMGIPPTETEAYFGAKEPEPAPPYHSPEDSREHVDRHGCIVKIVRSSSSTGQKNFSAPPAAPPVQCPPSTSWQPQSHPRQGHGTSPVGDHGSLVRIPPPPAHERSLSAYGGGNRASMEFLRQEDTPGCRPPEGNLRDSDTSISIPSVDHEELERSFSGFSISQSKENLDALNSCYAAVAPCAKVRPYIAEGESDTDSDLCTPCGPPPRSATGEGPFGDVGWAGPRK
UniProt P56696: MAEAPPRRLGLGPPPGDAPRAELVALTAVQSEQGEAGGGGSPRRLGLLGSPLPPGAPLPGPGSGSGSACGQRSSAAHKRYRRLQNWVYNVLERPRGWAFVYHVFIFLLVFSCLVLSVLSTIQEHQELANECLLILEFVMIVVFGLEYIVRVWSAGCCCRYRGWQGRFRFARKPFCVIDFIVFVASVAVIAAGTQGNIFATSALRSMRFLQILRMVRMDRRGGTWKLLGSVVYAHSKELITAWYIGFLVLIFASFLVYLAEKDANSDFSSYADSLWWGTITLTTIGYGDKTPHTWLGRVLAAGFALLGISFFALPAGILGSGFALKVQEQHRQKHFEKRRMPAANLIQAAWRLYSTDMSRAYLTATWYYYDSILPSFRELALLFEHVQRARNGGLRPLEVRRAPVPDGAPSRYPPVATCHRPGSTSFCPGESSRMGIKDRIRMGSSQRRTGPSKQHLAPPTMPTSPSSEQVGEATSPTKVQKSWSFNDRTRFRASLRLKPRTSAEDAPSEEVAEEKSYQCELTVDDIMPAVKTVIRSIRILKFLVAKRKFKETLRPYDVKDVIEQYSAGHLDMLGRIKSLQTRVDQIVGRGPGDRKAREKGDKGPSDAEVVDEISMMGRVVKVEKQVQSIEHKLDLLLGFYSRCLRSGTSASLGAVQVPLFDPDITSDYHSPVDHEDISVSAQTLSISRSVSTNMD

Key:
[1] = target: flag-tagged KV7.2 channel subunit (UniProt O43526); assay: co-IP; lysates of HEK293 cells expressing flag-tagged KV7 and myc-tagged KVS; anti-FLAG M2 beads, 4 C, 12 h, washed 4 times; western blot with anti-myc and anti-flag
[2] = target: flag-tagged KV7.4 channel subunit (UniProt P56696); assay: as above

B1: myc-tagged KV8.2 subunit (protein, UniProt Q8TDN2 1-545)
chain: MLKQSERRRSWSYRPWNTTENEGSQHRRSICSLGARSGSQASIHGWTEGNYNYYIEEDEDGEEEDQWKDDLAEEDQQAGEVTTAKPEGPSDPPALLSTLNVNVGGHSYQLDYCELAGFPKTRLGRLATSTSRSRQLSLCDDYEEQTDEYFFDRDPAVFQLVYNFYLSGVLLVLDGLCPRRFLEELGYWGVRLKYTPRCCRICFEERRDELSERLKIQHELRAQAQVEEAEELFRDMRFYGPQRRRLWNLMEKPFSSVAAKAIGVASSTFVLVSVVALALNTVEEMQQHSGQGEGGPDLRPILEHVEMLCMGFFTLEYLLRLASTPDLRRFARSALNLVDLVAILPLYLQLLLECFTGEGHQRGQTVGSVGKVGQVLRVMRLMRIFRILKLARHSTGLRAFGFTLRQCYQQVGCLLLFIAMGIFTFSAAVYSVEHDVPSTNFTTIPHSWWWAAVSISTVGYGDMYPETHLGRFFAFLCIAFGIILNGMPISILYNKFSDYYSKLKAYEYTTIRRERGEVNFMQRARKKIAECLLGSNPQLTPRQEN
For B1, the binding [1] was “binds” and the binding [2] was “binds”.
